Measurements reported in patent US20100185419A1, “ALGORITHM FOR DESIGNING IRREVERSIBLE INHIBITORS” (Avila Therapeutics, Inc., priority 2008, published 2010).
At least one structure is not confirmed: it was looked up by name or label, or the drawing left a doubt.

Molecular target: T1, HCV NS3/4A wild type (Hepatitis C virus genotype 1b, UniProt P26662)
T1 construct: The single-chain proteolytic domain (NS4A21-32-GSGS-NS33-631) was cloned into pET-14b; His tag; made in house; host or cells: Escherichia coli BL21
Test: Mass spectral analysis of intact HCV NS3/4A wild type protease
Format: binding
Settings: 10-fold excess of compound, 1 hr to 3 hrs, MALDI-TOF
Procedure: Mass spectrometric analysis of HCV in the presence of Compound 5 was performed using the following protocol: HCV NS3/4A wild type (wt) was incubated for 1 hr at a 10× fold access of Compound 5 to protein. 2 μl aliquots of the samples were diluted with 10 μl of 0.1% TFA prior to micro C4 ZipTipping directly onto the MALDI target using Sinapinic acid as the desorption matrix (10 mg/ml in 0.1% TFA:Acetonitrile 50:50). The instrument was set in linear mode using a pulsed extraction setting of 24,500 and apomyoglobin as the standard to calibrate the instrument.
100 pmols of HCV wild type (Bioenza CA) was incubated with compound for 1 hr and 3 hrs at 10-fold access of Compound 6 to protein. 1 μl aliquots of the samples (total volume of 4.24 ul) were diluted with 10 μl of 0.1% TFA prior to micro C4 ZipTipping directly onto the MALDI target using Sinapinic acid as the desorption matrix (10 mg/ml in 0.1% TFA:Acetonitrile 50:50). Analyses were performed on a Shimadzu Biotech Axima TOF^2 (Shimadzu Instruments) matrix-assisted-laser desorption/ionization Time-of-Flight (MALDI-TOF) mass spectrometer.

In the case of `C=CC(=O)NC[C@H](NC(=O)OC(C)(C)C)C(=O)N1C[C@H](Oc2cc(-c3ccccc3)nc3cc(OC)ccc23)C[C@H]1C(=O)N[C@]1(C(=O)NS(=O)(=O)c2ccccc2)C[C@H]1C=C` [Compound 6, N-[(1,1-dimethylethoxy)carbonyl]-3-[(2-propenoyl)amino]-L-alanyl-(4R)-4-[(7-methoxy-2-phenyl-4-quinolinyl)oxy]-L-prolyl-1-amino-2-ethenyl-N-(phenylsulfonyl)-(1R,2S)-cyclopropanecarboxamide], the “adduct formation with HCV protease wild type” value is reported as “nearly complete conversion after 3 hrs”.
